Experimental data taken from US20220127258A1, “AROMATIC RING OR HETEROAROMATIC RING COMPOUNDS, PREPARATION METHOD THEREFOR AND MEDICAL USE THEREOF” (The National Institutes of Pharmaceutical R&D Co., Ltd., priority 2019, published 2022).
At least one compound was matched to its structure with a doubt left.

System: cholestasis rat induced by ANIT
Assay: Efficacy on the cholestasis rat model induced by 1-naphthyl isothiocyanate (ANIT)
Assay type: in vivo, SD rats
Details: 3 and 10 mg/kg/d, conclusion of Test Example 2
Protocol: Animals: SD rats, male, 7 to 8 weeks old, weight: 220 to 240 g, purchased from Beijing Vital River Laboratory Animal Technology Co., Ltd., SPF grade, Certificate No.: SCXK (Beijing) 2016-0011, license issuing administration: Beijing Municipal Commission of Science and Technology.
Sample formulation: The compound of the present invention was added to DMSO, and dissolved completely by ultrasound. 0.5% CMC-Na was added to constant volume (DMSO: 0.5% CMC-Na=1:99), and the solution was homogenized by ultrasound for later use.
After 3 to 5 days of acclimation, the animals were divided into 20 groups according to body weight: normal group, model group, Example 8 (3 mg/kg/d, 10 mg/kg/d) group, Example 11 (3 mg/kg/d, 10 mg/kg/d) group, Example 12 (3 mg/kg/d, 10 mg/kg/d) group, Example 14 (3 mg/kg/d, 10 mg/kg/d) group, Example 20 (3 mg/kg/d, 10 mg/kg/d) group, Example 22 (3 mg/kg/d, 10 mg/kg/d) group, Example 26 (3 mg/kg/d, 10 mg/kg/d) group, Example 28 (3 mg/kg/d, 10 mg/kg/d) group, and Example 29 (3 mg/kg/d, 10 mg/kg/d) group, with 10 rats for each group. Intragastric administration was conducted with an administration volume of 10 mL/kg, once a day, for a total of 4 days. […] ALT, AST, GGT and TBA indexes as well as the plasma concentration of the compound were determined using an AU480 automatic biochemical analysis system (BECKMAN COULTER). […]

Q: For O=C(O)c1csc(-c2nnc(N3[C@@H]4CC[C@H]3C[C@@H](OCc3c(-c5c(Cl)cccc5Cl)noc3C3CC3)C4)o2)c1 [Example 20], which “level of ALT, AST, GGT and TBA in the serum of ANIT rat (in words)” value is on record?
A: The value was “significantly reduce”.
